Assay: Enhancement of water content in skin by the decoy molecule (summary)
Parameters: key: 0: on a scale using +symbols to reflect extent of the effect; −: on a scale using +symbols to reflect extent of the effect; +/−: on a scale using +symbols to reflect extent of the effect; on a scale using +symbols to reflect extent of the effect; ++: on a scale using +symbols to reflect extent of the effect; +++: on a scale using +symbols to reflect extent of the effect; ++++: on a scale using +symbols to reflect extent of the effect; +++++: on a scale using +symbols to reflect extent of the effect

hyaluronic acid [Hyaluronic Acid 100,000 Da degraded]
Water Content Enhancement in Skin (listed as 100,000 Da degraded): +

hyaluronic acid [Hyaluronic Acid 5000 Da]
Water Content Enhancement in Skin (listed as 5000 Da): ++

hyaluronic acid [Hyaluronic Acid 20,000 Da]
Water Content Enhancement in Skin (listed as 20,000 Da): +

hyaluronic acid [Hyaluronic Acid degraded 5000 Da]
Water Content Enhancement in Skin (listed as degraded 5000 Da): +++

hyaluronic acid [Hyaluronic Acid 3000 Da]
Water Content Enhancement in Skin (listed as 3000 Da): +++

hyaluronic acid [Hyaluronic Acid 10,000 Da]
Water Content Enhancement in Skin (listed as 10,000 Da): +

hyaluronic acid [Hyaluronic Acid 100,000 Da]
Water Content Enhancement in Skin (listed as 100,000 Da): +/−

hyaluronic acid [Hyaluronic Acid disaccharide (400 Da)]
Water Content Enhancement in Skin (listed as disaccharide (400 Da)): +++
